Results published in article PMC8468827.
No constants are given. Whether binding was seen depends on the method and setting. In cells and extracts the contact can be indirect. These calls come from enrichment with a bait or labelling near it, and not all partners need be listed.

Chains of the proteins cited; added tags and fusions are not shown. Lines headed by an entry give the natural chain unless they say otherwise; changes in a name come on top.
UniProt Q9VQ93: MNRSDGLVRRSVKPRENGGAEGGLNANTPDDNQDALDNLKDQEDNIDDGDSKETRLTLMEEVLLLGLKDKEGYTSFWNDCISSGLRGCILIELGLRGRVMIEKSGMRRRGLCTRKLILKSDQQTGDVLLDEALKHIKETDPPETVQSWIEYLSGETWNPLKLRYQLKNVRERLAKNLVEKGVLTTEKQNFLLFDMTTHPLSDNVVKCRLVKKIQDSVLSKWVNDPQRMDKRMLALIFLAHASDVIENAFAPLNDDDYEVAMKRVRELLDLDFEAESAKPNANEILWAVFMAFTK
UniProt P40793: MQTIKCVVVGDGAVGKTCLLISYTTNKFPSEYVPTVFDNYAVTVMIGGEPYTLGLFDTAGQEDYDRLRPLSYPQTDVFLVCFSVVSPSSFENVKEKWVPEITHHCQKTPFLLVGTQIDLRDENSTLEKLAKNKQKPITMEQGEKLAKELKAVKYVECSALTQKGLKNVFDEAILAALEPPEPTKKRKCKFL
UniProt Q9VEX2: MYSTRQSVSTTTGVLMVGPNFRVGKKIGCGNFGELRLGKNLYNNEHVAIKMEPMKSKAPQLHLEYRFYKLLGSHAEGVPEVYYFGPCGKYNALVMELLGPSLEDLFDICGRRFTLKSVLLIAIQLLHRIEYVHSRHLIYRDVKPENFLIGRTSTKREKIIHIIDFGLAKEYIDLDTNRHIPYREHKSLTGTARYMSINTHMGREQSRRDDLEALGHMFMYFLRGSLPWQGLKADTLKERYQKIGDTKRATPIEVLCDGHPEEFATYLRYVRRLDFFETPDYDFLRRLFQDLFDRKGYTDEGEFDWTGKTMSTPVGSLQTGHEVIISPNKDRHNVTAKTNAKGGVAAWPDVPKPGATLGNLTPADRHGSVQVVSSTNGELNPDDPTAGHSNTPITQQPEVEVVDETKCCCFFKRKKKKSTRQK
UniProt O96860: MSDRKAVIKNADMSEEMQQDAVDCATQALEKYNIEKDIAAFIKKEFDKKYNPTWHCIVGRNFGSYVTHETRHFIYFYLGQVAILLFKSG
UniProt Q86BK8: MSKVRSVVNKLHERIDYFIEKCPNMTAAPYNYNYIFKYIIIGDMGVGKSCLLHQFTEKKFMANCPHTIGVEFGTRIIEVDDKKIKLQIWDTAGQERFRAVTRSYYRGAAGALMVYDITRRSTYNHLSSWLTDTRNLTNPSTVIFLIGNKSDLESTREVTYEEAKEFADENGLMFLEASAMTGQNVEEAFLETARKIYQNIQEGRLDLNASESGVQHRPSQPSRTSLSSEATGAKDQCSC
UniProt O18338: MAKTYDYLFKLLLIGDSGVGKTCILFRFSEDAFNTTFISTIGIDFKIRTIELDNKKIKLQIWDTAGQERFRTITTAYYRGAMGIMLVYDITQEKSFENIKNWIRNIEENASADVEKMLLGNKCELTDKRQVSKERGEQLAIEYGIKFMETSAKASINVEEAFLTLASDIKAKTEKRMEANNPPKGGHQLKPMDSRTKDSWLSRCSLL
UniProt Q9VS57: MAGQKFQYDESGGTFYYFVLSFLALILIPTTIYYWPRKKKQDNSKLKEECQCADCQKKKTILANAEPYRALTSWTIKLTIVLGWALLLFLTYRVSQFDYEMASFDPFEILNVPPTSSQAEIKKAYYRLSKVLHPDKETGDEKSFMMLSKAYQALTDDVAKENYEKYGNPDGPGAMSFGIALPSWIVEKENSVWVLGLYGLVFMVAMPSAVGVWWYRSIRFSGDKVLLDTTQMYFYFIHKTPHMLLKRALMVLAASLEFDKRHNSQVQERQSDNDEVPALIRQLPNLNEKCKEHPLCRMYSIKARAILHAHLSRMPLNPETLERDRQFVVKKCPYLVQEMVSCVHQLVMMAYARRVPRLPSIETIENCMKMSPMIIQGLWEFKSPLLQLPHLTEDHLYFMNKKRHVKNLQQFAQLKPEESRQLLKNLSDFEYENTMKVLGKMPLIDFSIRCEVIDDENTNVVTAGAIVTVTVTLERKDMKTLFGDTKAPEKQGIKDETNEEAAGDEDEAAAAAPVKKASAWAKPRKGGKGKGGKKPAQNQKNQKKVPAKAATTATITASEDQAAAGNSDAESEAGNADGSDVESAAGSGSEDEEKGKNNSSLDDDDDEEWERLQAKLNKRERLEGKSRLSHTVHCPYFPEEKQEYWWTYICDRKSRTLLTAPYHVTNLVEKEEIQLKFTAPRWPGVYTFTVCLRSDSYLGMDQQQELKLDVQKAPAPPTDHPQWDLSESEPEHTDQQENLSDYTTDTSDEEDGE
UniProt Q9VLS7: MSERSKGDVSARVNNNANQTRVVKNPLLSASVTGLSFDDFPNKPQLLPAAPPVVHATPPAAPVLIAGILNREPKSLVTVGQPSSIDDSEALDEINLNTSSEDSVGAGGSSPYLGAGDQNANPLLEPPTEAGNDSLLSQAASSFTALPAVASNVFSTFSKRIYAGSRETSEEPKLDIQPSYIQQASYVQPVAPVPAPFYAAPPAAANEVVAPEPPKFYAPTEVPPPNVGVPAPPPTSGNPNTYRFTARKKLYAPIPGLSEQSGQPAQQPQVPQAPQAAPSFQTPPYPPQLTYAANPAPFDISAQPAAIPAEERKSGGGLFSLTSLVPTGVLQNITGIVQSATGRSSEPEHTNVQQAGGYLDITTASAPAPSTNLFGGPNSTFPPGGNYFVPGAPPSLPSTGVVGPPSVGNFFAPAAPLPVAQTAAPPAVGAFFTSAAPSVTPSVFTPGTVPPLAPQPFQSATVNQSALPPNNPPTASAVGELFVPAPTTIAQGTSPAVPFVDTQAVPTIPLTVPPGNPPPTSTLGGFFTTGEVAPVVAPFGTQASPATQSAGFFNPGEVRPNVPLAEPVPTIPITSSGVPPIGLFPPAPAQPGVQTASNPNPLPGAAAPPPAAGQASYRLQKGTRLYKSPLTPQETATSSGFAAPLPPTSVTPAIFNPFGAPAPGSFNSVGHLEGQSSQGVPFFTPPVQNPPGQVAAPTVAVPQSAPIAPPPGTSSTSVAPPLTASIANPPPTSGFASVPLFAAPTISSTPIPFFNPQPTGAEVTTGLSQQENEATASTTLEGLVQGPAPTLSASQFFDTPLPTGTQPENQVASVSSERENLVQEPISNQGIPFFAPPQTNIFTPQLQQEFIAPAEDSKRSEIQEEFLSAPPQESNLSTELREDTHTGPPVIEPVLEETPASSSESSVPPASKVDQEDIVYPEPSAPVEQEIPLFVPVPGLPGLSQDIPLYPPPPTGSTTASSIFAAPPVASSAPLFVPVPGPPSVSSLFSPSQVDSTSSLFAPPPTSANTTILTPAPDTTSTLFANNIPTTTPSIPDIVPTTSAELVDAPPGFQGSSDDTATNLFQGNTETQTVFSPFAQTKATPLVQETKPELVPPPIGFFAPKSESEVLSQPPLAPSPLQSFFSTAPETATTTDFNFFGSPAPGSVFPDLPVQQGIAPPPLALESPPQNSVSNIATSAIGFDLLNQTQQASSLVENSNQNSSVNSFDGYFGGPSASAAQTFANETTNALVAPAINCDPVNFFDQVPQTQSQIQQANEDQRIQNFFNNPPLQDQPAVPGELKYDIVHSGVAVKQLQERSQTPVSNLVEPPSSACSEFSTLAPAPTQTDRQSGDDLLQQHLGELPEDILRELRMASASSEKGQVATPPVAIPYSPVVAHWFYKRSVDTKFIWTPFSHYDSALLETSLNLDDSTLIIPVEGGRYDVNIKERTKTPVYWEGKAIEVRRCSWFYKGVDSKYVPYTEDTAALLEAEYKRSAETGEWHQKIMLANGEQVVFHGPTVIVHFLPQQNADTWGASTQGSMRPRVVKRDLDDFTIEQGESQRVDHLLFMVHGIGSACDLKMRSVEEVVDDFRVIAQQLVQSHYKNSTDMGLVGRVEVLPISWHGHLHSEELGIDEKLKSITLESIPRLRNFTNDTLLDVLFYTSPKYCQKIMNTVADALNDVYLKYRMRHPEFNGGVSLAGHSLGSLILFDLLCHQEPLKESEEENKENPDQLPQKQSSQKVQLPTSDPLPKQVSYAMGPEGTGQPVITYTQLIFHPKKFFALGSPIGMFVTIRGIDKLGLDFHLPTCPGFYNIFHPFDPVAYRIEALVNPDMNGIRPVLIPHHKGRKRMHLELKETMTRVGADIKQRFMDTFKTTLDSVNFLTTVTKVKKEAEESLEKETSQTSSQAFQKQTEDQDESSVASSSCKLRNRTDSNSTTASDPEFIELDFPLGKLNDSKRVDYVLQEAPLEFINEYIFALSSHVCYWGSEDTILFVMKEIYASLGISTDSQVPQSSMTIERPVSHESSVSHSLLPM
UniProt Q7K110: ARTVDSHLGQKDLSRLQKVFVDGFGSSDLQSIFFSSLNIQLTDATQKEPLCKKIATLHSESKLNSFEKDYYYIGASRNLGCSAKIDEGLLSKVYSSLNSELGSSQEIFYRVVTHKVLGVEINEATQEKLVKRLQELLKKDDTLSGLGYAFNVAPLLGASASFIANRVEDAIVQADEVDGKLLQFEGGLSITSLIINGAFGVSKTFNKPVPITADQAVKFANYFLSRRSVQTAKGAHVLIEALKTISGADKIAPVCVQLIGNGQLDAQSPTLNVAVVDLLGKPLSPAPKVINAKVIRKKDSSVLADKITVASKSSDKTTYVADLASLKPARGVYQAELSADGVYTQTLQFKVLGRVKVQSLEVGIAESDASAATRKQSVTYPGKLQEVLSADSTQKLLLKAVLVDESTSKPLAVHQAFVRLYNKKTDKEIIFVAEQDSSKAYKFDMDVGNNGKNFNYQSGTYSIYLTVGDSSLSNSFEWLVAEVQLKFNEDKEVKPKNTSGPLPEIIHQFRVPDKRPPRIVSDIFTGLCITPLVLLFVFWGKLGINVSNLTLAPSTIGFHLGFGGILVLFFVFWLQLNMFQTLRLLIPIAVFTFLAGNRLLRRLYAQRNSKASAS
UniProt Q9VGM0: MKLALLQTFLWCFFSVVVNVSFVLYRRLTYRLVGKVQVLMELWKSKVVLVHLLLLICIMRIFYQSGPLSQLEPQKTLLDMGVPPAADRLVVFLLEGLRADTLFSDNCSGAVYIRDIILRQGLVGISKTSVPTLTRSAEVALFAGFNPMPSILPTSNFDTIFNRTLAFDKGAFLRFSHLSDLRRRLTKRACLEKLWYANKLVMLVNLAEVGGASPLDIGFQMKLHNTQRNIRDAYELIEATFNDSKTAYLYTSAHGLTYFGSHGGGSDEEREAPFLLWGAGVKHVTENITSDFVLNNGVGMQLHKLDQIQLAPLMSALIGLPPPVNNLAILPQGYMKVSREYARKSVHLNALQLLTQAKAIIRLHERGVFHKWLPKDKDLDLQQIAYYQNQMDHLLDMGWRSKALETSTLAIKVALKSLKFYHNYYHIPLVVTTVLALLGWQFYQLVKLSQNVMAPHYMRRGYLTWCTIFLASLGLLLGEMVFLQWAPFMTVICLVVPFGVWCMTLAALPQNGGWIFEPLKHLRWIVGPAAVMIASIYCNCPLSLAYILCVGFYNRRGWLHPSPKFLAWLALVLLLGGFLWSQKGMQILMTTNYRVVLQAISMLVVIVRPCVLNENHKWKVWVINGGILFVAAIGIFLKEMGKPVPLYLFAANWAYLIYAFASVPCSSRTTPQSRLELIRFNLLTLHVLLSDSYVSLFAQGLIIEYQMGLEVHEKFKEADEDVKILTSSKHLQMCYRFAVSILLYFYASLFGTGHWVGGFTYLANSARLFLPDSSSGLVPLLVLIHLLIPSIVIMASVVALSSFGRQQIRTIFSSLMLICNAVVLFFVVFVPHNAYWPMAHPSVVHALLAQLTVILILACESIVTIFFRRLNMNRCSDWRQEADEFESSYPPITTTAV
UniProt Q7KN62: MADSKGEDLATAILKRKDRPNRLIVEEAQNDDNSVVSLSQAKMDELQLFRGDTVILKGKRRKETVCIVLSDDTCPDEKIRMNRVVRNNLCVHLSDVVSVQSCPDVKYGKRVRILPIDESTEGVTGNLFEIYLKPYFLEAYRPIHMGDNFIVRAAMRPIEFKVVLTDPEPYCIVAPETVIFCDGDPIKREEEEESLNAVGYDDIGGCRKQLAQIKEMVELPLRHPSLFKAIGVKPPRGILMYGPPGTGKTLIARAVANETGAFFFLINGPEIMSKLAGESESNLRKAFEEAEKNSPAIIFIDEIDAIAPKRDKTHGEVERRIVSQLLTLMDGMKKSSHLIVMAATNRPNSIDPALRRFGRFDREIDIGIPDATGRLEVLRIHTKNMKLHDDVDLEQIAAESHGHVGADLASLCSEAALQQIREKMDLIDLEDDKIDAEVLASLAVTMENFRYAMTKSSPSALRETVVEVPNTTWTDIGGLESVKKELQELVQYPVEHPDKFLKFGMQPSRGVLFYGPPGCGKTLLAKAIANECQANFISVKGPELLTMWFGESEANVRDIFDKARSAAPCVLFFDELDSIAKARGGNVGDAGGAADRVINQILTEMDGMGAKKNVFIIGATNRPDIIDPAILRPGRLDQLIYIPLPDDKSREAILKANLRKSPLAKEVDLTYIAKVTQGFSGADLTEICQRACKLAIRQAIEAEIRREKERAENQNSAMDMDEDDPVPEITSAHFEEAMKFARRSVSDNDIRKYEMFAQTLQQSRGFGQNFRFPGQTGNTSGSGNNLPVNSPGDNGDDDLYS

What follows are substances tested against dGOLPH3-mRFP (Drosophila) (UniProt Q9VQ93) (assay: affinity purification with mass spectrometry; RFP-trap beads on lysate of 3000 adult testes expressing dGOLPH3-RFP (RFP alone as control); lysis buffer 25 mM Tris-HCl pH 7.4, 150 mM NaCl, 1 mM EDTA, 1% NP-40; washes at 4 °C; nanoLC-MS/MS).

Substance	binding
Rab1 (from UniProt O18332 1-205)	binds
Cdc42 (from UniProt P40793 1-191)	binds
Ergic53 (from UniProt Q9V3A8)	binds
CG5342 (from UniProt Q9VGL9)	binds
CG4907 (from UniProt Q9VCV7)	binds
Gilgamesh (Gish) (from UniProt Q9VEX2 1-422)	binds
Cytoplasmic dynein light chain 2 (Cdlc2) (from UniProt O96860 1-89)	binds
Sec23 (from UniProt Q9VNF8 1-773)	binds
Uridine diphosphate (UDP)-glucose:glycoprotein glucosyltransferase (from UniProt Q09332 23-1548)	binds
CG10859 (from UniProt Q9VJY4)	binds
Rab14 (from UniProt Q86BK8 1-239)	binds
dFmr1 (from UniProt Q9NFU0 1-684)	binds

The remaining lines, values ahead:

binding	Substance
binds	Rab8 (from UniProt O18338 1-207)
binds	Sec63 (from UniProt Q9VS57)
binds	Cut up (Ctp) (from UniProt Q24117 1-89)
binds	Multi-substrate lipid kinase (Mulk) (from UniProt Q9VL10)
binds	PAPLA1 (from UniProt Q9VLS7 1-2016)
binds	OstΔ (from UniProt Q7K110)
binds	CG6790 (from UniProt Q9VGM0)
binds	clathrin heavy chain subunit (Chc) (from UniProt P29742 1-1678)
binds	Transitional endoplasmic reticulum 94, TER94 (from UniProt Q7KN62 1-801)
binds	Sec31 (from UniProt A1Z7J7)
